Paper doi:10.1101/568113
No constants are given. Whether binding was seen depends on the method and setting. For some assays here: In cells and extracts the contact can be indirect. For some assays here: Sequences can lack the tags named with a protein.

B1: Phytochelatin synthase 1 (PCS1), split-ubiquitin yeast two-hybrid fusion (enzyme, UniProt Q9S7Z3 1-485)
chain: MAMASLYRRSLPSPPAIDFSSAEGKLIFNEALQKGTMEGFFRLISYFQTQSEPAYCGLASLSVVLNALSIDPGRKWKGPWRWFDESMLDCCEPLEVVKEKGISFGKVVCLAHCSGAKVEAFRTSQSTIDDFRKFVVKCTSSENCHMISTYHRGVFKQTGTGHFSPIGGYNAERDMALILDVARFKYPPHWVPLKLLWEAMDSIDQSTGKRRGFMLISRPHREPGLLYTLSCKDESWIEIAKYLKEDVPRLVSSQHVDSVEKIISVVFKSLPSNFNQFIRWVAEIRITEDSNQNLSAEEKSRLKLKQLVLKEVHETELFKHINKFLSTVGYEDSLTYAAAKACCQGAEILSGSPSKEFCCRETCVKCIKGPDDSEGTVVTGVVVRDGNEQKVDLLVPSTQTECECGPEATYPAGNDVFTALLLALPPQTWSGIKDQALMHEMKQLISMASLPTLLQEEVLHLRRQLQLLKRCQENKEEDDLAAPAY
B2: 3xHA-RFP-PCS1 (enzyme, UniProt Q9S7Z3 1-485)
chain: B1 chain

Experiments:
[1] = biological target: T1, PEN2 myrosinase, split-ubiquitin yeast two-hybrid fusion (Arabidopsis thaliana) (UniProt O64883); test: two-hybrid
T1 sequence: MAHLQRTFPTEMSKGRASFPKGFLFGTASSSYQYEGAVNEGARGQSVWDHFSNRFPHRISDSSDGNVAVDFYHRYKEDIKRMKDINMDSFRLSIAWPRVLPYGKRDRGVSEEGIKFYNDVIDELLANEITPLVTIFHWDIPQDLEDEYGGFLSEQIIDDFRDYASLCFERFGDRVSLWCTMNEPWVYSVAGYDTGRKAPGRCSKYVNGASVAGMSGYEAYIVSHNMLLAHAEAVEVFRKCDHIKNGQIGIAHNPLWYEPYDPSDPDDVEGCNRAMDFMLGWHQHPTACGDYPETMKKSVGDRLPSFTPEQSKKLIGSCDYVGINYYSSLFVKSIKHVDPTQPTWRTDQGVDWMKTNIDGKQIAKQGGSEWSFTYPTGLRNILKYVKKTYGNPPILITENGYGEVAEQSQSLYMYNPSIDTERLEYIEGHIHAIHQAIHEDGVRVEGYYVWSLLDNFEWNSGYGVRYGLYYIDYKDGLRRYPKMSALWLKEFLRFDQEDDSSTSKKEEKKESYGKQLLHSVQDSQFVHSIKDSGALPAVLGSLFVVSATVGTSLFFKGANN

[2] = biological target: PEN2-GFP (Arabidopsis thaliana) (UniProt O64883); test: co-IP

Binder	binding [1]	binding [2]
B1	no binding	
B2		no binding
